No constants are given. Whether binding was seen depends on the method and setting. Some results given as binding are weak or reduced against the parent protein; the word gives no strength.
Tests used:
[1] = target: T1, TAMRA labelled peptide …; experiment: fluorescence polarisation; competition, under blue light (455 nm, 6 mW/cm^2; value read after 2 minutes of illumination); 25 nM TAMRA peptide …, 50 mM Tris pH 7.5, 100 mM NaCl, 1 mM DTT, 25°C; Kd from IC50; both purified
T1 sequence (peptide, amine labeled with 5- and 6-Carboxytetramethylrhodamine (TAMRA)): GDMAAKRVKLD

Protein sequences, listed by entry. Tags and fused reporters are not part of them.
UniProt P52294: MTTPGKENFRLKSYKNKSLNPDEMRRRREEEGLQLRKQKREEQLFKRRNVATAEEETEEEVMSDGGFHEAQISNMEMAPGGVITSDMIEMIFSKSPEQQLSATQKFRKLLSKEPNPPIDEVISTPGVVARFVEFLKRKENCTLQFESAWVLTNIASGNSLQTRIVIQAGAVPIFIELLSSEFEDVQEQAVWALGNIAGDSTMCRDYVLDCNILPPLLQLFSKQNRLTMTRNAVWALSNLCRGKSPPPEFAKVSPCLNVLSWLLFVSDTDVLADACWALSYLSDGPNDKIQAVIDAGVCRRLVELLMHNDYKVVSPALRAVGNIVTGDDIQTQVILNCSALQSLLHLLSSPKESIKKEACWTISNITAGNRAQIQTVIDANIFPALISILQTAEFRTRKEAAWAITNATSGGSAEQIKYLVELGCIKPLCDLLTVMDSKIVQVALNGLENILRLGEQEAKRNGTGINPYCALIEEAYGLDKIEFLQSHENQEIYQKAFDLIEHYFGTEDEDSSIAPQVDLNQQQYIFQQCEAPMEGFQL

[2] = target: T1, TAMRA labelled peptide …; experiment: fluorescence polarisation; direct: importin α titrated into 25 nM TAMRA peptide, 50 mM Tris pH 7.5, 100 mM NaCl, 1 mM DTT, 25°C; both purified
[3] = target: T1, TAMRA labelled peptide …; experiment: fluorescence polarisation; competition, dark (value read after 5 minutes in absence of light); 25 nM TAMRA peptide …, 50 mM Tris pH 7.5, 100 mM NaCl, 1 mM DTT, 25°C; Kd from IC50; both purified
[4] = target: human importin α7 (human) (UniProt O60684); experiment: fluorescence polarisation; competition, under blue light (455 nm, 6 mW/cm^2; value read after 2 minutes of illumination); 25 nM TAMRA peptide …, 50 mM Tris pH 7.5, 100 mM NaCl, 1 mM DTT, 25°C; Kd from IC50; both purified
[5] = target: human importin α5 (human) (UniProt P52294); experiment: as above
[6] = target: human importin α7 (human) (UniProt O60684); experiment: fluorescence polarisation; competition, dark (value read after 5 minutes in absence of light); 25 nM TAMRA peptide …, 50 mM Tris pH 7.5, 100 mM NaCl, 1 mM DTT, 25°C; Kd from IC50; both purified
[7] = target: human importin α5 (human) (UniProt P52294); experiment: as above

| Substance | binding [1] | binding [2] | binding [3] | binding [4] | binding [5] | binding [6] | binding [7] |
| --- | --- | --- | --- | --- | --- | --- | --- |
| human importin α7 (from UniProt O60684 1-536) | binds | binds | binds |  |  |  |  |
| human importin α5 (from UniProt P52294 1-538) | binds | binds | binds |  |  |  |  |
| wild type AsLOV2 (from UniProt O49003 404-546) (domain or fragment) |  |  |  | no binding | no binding | no binding | no binding |

From PMC4471001
